PubChem BioAssay AID463229 (Broad Institute, 2010)

Tested on: INS-1E rat beta cells, no cytokines, CellTiter-Glo ATP, 48 h
Test: ATP level change in INS-1E without cytokines, dose response, counter-screen for beta-cell apoptosis protection project, INS-1E rat cells, ATP luminescence, cherry pick (AID 463229)

## COc1ccccc1C(=O)NNC(=S)NC(=O)c1ccco1
  AC50: 11.8 µM
